Article PMC5851652
Results are given in words; binding and its absence hold for the method and conditions named. In cells and extracts the contact can be indirect. A yes stands for co-enrichment or nearness to the bait. Other partners may have been found. Where a sequence is shown, tags or fusion partners need not be part of it.

T1: OASL-myc (human) (UniProt Q15646)
T1 sequence: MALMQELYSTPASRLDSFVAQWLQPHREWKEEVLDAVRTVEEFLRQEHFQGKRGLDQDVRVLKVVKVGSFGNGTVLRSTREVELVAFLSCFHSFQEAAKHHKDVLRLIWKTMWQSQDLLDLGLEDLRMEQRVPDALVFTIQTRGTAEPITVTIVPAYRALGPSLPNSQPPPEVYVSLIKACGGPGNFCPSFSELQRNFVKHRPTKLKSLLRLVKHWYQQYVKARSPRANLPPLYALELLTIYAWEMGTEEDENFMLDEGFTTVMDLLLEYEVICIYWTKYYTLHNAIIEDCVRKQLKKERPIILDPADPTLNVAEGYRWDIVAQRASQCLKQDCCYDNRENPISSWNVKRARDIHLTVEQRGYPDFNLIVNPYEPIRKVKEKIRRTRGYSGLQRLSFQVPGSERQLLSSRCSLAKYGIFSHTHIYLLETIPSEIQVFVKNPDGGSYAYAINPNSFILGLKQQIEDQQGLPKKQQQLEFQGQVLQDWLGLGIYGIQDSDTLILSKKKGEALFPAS

B1: Ribosome production factor 2 homolog (protein, UniProt Q9H7B2 1-306)
chain: MDTLDRVVKPKTKRAKRFLEKREPKLNENIKNAMLIKGGNANATVTKVLKDVYALKKPYGVLYKKKNITRPFEDQTSLEFFSKKSDCSLFMFGSHNKKRPNNLVIGRMYDYHVLDMIELGIENFVSLKDIKNSKCPEGTKPMLIFAGDDFDVTEDYRRLKSLLIDFFRGPTVSNIRLAGLEYVLHFTALNGKIYFRSYKLLLKKSGCRTPRIELEEMGPSLDLVLRRTHLASDDLYKLSMKMPKALKPKKKKNISHDTFGTTYGRIHMQKQDLSKLQTRKMKGLKKRPAERITEDHEKKSKRIKKN
B2: RNA-binding protein 34 (protein, UniProt P42696 1-430)
chain: MALEGMSKRKRKRSVQEGENPDDGVRGSPPEDYRLGQVASSLFRGEHHSRGGTGRLASLFSSLEPQIQPVYVPVPKQTIKKTKRNEEEESTSQIERPLSQEPAKKVKAKKKHTNAEKKLADRESALASADLEEEIHQKQGQKRKNSQPGVKVADRKILDDTEDTVVSQRKKIQINQEEERLKNERTVFVGNLPVTCNKKKLKSFFKEYGQIESVRFRSLIPAEGTLSKKLAAIKRKIHPDQKNINAYVVFKEESAATQALKRNGAQIADGFRIRVDLASETSSRDKRSVFVGNLPYKVEESAIEKHFLDCGSIMAVRIVRDKMTGIGKGFGYVLFENTDSVHLALKLNNSELMGRKLRVMRSVNKEKFKQQNSNPRLKNVSKPKQGLNFTSKTAEGHPKSLFIGEKAVLLKTKKKGQKKSGRPKKQRKQK
B3: Probable rRNA-processing protein EBP2 (protein, UniProt Q99848 1-306)
chain: MDTPPLSDSESESDESLVTDRELQDAFSRGLLKPGLNVVLEGPKKAVNDVNGLKQCLAEFKRDLEWVERLDVTLGPVPEIGGSEAPAPQNKDQKAVDPEDDFQREMSFYRQAQAAVLAVLPRLHQLKVPTKRPTDYFAEMAKSDLQMQKIRQKLQTKQAAMERSEKAKQLRALRKYGKKVQTEVLQKRQQEKAHMMNAIKKYQKGFSDKLDFLEGDQKPLAQRKKAGAKGQQMRKGPSAKRRYKNQKFGFGGKKKGSKWNTRESYDDVSSFRAKTAHGRGLKRPGKKGSNKRPGKRTREKMKNRTH
B4: RNA-binding protein 28 (protein, UniProt Q9NW13 1-759)
chain: MAGLTLFVGRLPPSARSEQLEELFSQVGPVKQCFVVTEKGSKACRGFGYVTFSMLEDVQRALKEITTFEGCKINVTVAKKKLRNKTKEKGKNENSECPKKEPKAKKAKVADKKARLIIRNLSFKCSEDDLKTVFAQFGAVLEVNIPRKPDGKMRGFGFVQFKNLLEAGKALKGMNMKEIKGRTVAVDWAVAKDKYKDTQSVSAIGEEKSHESKHQESVKKKGREEEDMEEEENDDDDDDDDEEDGVFDDEDEEEENIESKVTKPVQIQKRAVKRPAPAKSSDHSEEDSDLEESDSIDDGEELAQSDTSTEEQEDKAVQVSNKKKRKLPSDVNEGKTVFIRNLSFDSEEEELGELLQQFGELKYVRIVLHPDTEHSKGCAFAQFMTQEAAQKCLLAASPENEAGGLKLDGRQLKVDLAVTRDEAAKLQTTKVKKPTGTRNLYLAREGLIRAGTKAAEGVSAADMAKRERFELLKHQKLKDQNIFVSRTRLCLHNLPKAVDDKQLRKLLLSATSGEKGVRIKECRVMRDLKGVHGNMKGQSLGYAFAEFQEHEHALKALRLINNNPEIFGPLKRPIVEFSLEDRRKLKMKELRIQRSLQKMRSKPATGEPQKGQPEPAKDQQQKAAQHHTEEQSKVPPEQKRKAGSTSWTGFQTKAEVEQVELPDGKKRRKVLALPSHRGPKIRLRDKGKVKPVHPKKPKPQINQWKQEKQQLSSEQVSRKKAKGNKTETRFNQLVEQYKQKLLGPSKGAPLAKRSKWFDS
B5: Putative ribosomal RNA methyltransferase NOP2 (protein, UniProt P46087 1-812)
chain: MGRKLDPTKEKRGPGRKARKQKGAETELVRFLPAVSDENSKRLSSRARKRAAKRRLGSVEAPKTNKSPEAKPLPGKLPKGISAGAVQTAGKKGPQSLFNAPRGKKRPAPGSDEEEEEEDSEEDGMVNHGDLWGSEDDADTVDDYGADSNSEDEEEGEALLPIERAARKQKAREAAAGIQWSEEETEDEEEEKEVTPESGPPKVEEADGGLQINVDEEPFVLPPAGEMEQDAQAPDLQRVHKRIQDIVGILRDFGAQREEGRSRSEYLNRLKKDLAIYYSYGDFLLGKLMDLFPLSELVEFLEANEVPRPVTLRTNTLKTRRRDLAQALINRGVNLDPLGKWSKTGLVVYDSSVPIGATPEYLAGHYMLQGASSMLPVMALAPQEHERILDMCCAPGGKTSYMAQLMKNTGVILANDANAERLKSVVGNLHRLGVTNTIISHYDGRQFPKVVGGFDRVLLDAPCSGTGVISKDPAVKTNKDEKDILRCAHLQKELLLSAIDSVNATSKTGGYLVYCTCSITVEENEWVVDYALKKRNVRLVPTGLDFGQEGFTRFRERRFHPSLRSTRRFYPHTHNMDGFFIAKFKKFSNSIPQSQTGNSETATPTNVDLPQVIPKSENSSQPAKKAKGAAKTKQQLQKQQHPKKASFQKLNGISKGADSELSTVPSVTKTQASSSFQDSSQPAGKAEGIREPKVTGKLKQRSPKLQSSKKVAFLRQNAPPKGTDTQTPAVLSPSKTQATLKPKDHHQPLGRAKGVEKQQLPEQPFEKAAFQKQNDTPKGPQPPTVSPIRSSRPPPAKRKKSQSRGNSQLLLS

These binders were tested against T1, OASL-myc (human) (assay: affinity purification with mass spectrometry; q-AP-MS: SILAC-labelled HeLa S3 cells transfected with the myc-tagged bait or LacZ-myc (forward and crossover); NP-40 lysis buffer with benzonase, 1 h at 4°C; anti-c-myc microbeads; LC-MS/MS).

binding, binds:
B1
B2
B3
B4
B5
